From patent US12195461B2, “Pyrrolo-dipyridine compounds” (OssiFi Therapeutics LLC, priority 2018, dated 2025)
Some results were stated once for a whole list of compounds, not compound by compound.

Target: T1, sclerostin (Homo sapiens, UniProt Q9BQB4)
T1 construct: host or cells: human embryonic cells (assay cells)
T1 sequence (Q9BQB4 24-213): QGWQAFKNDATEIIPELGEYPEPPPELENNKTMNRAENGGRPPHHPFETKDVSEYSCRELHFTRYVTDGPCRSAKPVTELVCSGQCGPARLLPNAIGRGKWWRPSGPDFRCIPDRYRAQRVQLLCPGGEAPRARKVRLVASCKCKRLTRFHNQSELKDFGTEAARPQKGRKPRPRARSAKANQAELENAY
Test: Modulation of sclerostin/Wnt activity: restoring Wnt3a signaling in the presence of sclerostin
Format: cell-based
Settings: human embryonic cells
Protocol: Compounds synthesized in accordance with the methods of Examples 1-6 were assayed for their ability to restore Wnt signaling in the presence of sclerostin consistent with a known sclerostin antagonist, sclerostin Mab. See, Ellies et al., J Bone Miner Res 21:1738-1749 (2006). […] The addition of a known sclerostin antagonist inhibited sclerostin inhibition of Wnt3a signaling, thus restoring Wnt3a signaling in the cell (IC100 at 10 μM) (data not shown).

Compound | effect on Wnt3a signaling (in words)
Cl.FC(F)(F)c1nccc2c3ccncc3n(CCN3CCOCC3)c12 [Example 1, 4-(2-(1-(Trifluoromethyl)-9H-pyrrolo[2,3-c:5,4-c′]dipyridin-9-yl)ethyl)morpholine hydrochloride salt] | inhibited sclerostin inhibition of Wnt3a signaling and restored Wnt3a signaling in the cell
Cl.[O-][n+]1ccc2c3ccnc(C(F)(F)F)c3n(CCN3CCOCC3)c2c1 [Example 2, 9-(2-Morpholinoethyl)-8-(trifluoromethyl)-9H-pyrrolo[2,3-c:5,4-c′]dipyridine 2-oxide hydrochloride salt] | inhibited sclerostin inhibition of Wnt3a signaling and restored Wnt3a signaling in the cell
COc1ccc2c3ccnc(C(F)(F)F)c3n(CCN3CCOCC3)c2n1.Cl [Example 3, 4-(2-(2-Methoxy-8-(trifluoromethyl)-9H-pyrrolo[2,3-b:5,4-c′]dipyridin-9-yl)ethyl)morpholine hydrochloride salt] | inhibited sclerostin inhibition of Wnt3a signaling and restored Wnt3a signaling in the cell
COc1cc2c(cn1)c1ccnc(C(F)(F)F)c1n2CCN1CCOCC1.Cl [Example 4, 4-(2-(3-Methoxy-6-(trifluoromethyl)-5H-pyrrolo[2,3-c:4,5-c′]dipyridin-5-yl)ethyl)morpholine hydrochloride salt] | inhibited sclerostin inhibition of Wnt3a signaling and restored Wnt3a signaling in the cell
COc1ncc2c3ccnc(C(F)(F)F)c3n(CCN3CCOCC3)c2n1 [Example 5, 4-(2-(2-Methoxy-8-(trifluoromethyl)-9H-pyrido[4′,3′:4,5]pyrrolo[2,3-d]pyrimidin-9-yl)ethyl)morpholine] | inhibited sclerostin inhibition of Wnt3a signaling and restored Wnt3a signaling in the cell
COc1nc2c(cc1F)c1ccnc(C(F)(F)F)c1n2CCN1CCOCC1.Cl [Example 6, 4-(2-(3-Fluoro-2-methoxy-8-(trifluoromethyl)-9H-pyrrolo[2,3-b:5,4-c′]dipyridin-9-yl)ethyl)morpholine hydrochloride salt] | inhibited sclerostin inhibition of Wnt3a signaling and restored Wnt3a signaling in the cell
